We go through two molecules from patent CN107840892A.

Sequences of proteins named here, by UniProt entry; tags and fusion partners are left off. Residues count along the entry.
UniProt Q8NBP7, residues 31-692: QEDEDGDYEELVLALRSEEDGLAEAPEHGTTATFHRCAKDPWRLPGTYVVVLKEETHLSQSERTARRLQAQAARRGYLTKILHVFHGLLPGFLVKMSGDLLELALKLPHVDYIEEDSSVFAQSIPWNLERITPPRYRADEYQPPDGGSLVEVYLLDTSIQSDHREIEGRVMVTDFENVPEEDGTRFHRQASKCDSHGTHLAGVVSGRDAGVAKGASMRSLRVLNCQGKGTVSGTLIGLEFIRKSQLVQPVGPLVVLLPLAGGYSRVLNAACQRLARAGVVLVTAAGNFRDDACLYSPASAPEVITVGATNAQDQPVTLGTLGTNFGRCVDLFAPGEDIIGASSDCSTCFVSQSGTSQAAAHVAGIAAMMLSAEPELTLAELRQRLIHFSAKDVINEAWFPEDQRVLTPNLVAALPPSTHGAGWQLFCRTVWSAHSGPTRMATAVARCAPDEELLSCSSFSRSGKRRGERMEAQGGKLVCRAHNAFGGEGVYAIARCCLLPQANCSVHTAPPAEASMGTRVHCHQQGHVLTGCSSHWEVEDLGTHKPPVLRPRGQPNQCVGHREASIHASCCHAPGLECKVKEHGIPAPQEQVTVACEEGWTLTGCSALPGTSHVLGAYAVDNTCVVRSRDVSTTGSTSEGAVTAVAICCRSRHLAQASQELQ

Numbering of substitutions follows the chain as printed. Results are given in words; binding and its absence hold for the method and conditions named. Some entries that bind do so weakly or less than the wild type.

In assay [1] the target is 人源PCSK9 (前蛋白转化酶枯草杆菌蛋白酶Kexin 9型) (human) (UniProt Q8NBP7). Kind of assay: SPR. On the technique in general: Surface plasmon resonance follows binding to a sensor surface in real time, without labels.
The target is the same in assay [2]. The assay can be described thus: binding and blocking ELISA; the mouse parent is the reference of the comparison. A general note: ELISA stands for enzyme-linked immunosorbent assay.

B1: 2.12.12.4-v2-z4-uIgG4k (antibody, V domains shown)
VH: QVQLVQSGAEVKKPGSSVKVSCEASGYTFTNYVMHWVRQAPGQGLEWMGYINPYNDYIKYNEKFKGKATITADKSTSTAYMELSSLRSEDTAVYYCGRQRYYGYRPYYAMDYWGQGTLVTVSS
VL: DIVLTQSPASLAVSPGQRATITCRASESVEGYGNVFMHWYQQKPGQPPKLLIYLASNLESGVPARFSGSGSGTDFTLTINPVEADDTANYYCQQNNKDPWTFGGGTKVEIK
On to B1, for which the binding entry in assay [1] is on record as “binds”.

B2: 2.12.12.4 (小鼠单克隆抗体) (antibody, V domains shown)
VH: EVQLQQSGPELVKPGASVKMSCEASGYTFTNYVMHWVKQKPGQGLEWIGYINPYNDYIKYNEKFKGKATLTSDKSSSTTYLEVSSLTSEDSAVYYCGRQRYYGYRPYYAMDYWGQGTSVTVSS
VL: B1 VL with D1N, P15L, T22S, E30D, A64D, G72R, N80D, T87A, N89T, V108L
Regarding B2, the binding result in assay [2] was “binds”.
